Screen size: about 390,000 compounds; about 4,000 (1%) were called active. The shares of active, inactive and inconclusive entries below differ from those in the screen. The call rests on the fitted dose curve; in most records, active means well fitted inhibition curve with a large enough effect; inconclusive means small, poorly fitted or top-dose-only effect, or another doubt; inactive means no such curve, though single readings can be large or run the other way. A potency beside an inconclusive call is a rough fit, not a confirmed value.
target: DNA polymerase iota (Homo sapiens) (UniProt Q9UNA4); assay: qHTS for Inhibitors of Polymerase Iota; conditions: Pol iota fluorescent replication assay, 10 min; series mostly up to 115 µM
Outline: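 Pol iota at 10 nM preincubated 15 min with compounds at room temperature; reaction started with fluorescent substrate, 50 nM final. Fluorescence read kinetically at 0 and 10 min; buffer-only wells as negative control.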
Potency means the concentration at half of the fitted maximal effect.

Protein sequences, listed by entry. Tags and fused reporters are not part of them. Lines headed by an entry give the natural chain unless they say otherwise; changes in a name come on top.
UniProt Q9UNA4: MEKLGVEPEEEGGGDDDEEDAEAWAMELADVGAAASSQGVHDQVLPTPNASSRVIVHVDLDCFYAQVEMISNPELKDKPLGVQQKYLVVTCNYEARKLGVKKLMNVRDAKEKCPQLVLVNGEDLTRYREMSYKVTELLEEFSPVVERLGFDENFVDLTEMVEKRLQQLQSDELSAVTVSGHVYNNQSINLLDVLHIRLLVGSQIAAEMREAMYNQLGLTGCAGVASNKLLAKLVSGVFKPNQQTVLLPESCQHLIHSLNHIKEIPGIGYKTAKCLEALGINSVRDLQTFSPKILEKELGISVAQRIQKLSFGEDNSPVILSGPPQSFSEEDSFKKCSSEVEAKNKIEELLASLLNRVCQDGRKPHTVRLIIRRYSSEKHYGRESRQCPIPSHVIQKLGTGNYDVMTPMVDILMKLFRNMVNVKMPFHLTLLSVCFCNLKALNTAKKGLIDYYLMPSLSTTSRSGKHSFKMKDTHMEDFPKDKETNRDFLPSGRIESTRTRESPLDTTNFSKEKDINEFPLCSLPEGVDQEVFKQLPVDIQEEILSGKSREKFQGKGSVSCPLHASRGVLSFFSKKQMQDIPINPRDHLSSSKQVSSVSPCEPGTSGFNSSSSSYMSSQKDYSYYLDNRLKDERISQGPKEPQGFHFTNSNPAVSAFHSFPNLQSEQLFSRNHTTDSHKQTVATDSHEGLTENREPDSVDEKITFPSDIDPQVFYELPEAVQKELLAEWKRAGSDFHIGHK

| Compound | Potency |
| --- | --- |
| CC(C)OCCCn1c(=O)c2ccccc2n2c(-c3ccccc3)nnc12 | inactive |
| CC(C)(C)C1CCc2c(sc(NC(=O)c3cccc(Cl)c3)c2C(=O)NCc2ccco2)C1 (centres undefined) | inactive |
| COc1cc(OC)c(NC(=O)CCS(=O)(=O)c2ccc3c(c2)oc(=O)n3C)cc1Cl | inactive |
| COc1ccc(NCc2cccn2-c2nnc(N3CCCCCC3)s2)cc1 | inconclusive: 56.2 µM [inhibitor, partial curve, poor fit] |
| CCOCCc1c(O)nc(SCC(=O)NCc2ccco2)[nH]c1=O | inconclusive: 20 µM [inhibitor, full curve, poor fit] |
| Cc1nc(NC(=O)c2ccccc2)sc1-c1csc(Nc2ccc(C(=O)O)cc2)n1 | inconclusive: 35.5 µM [inhibitor, partial curve, poor fit] |
| COc1cc(/C=N/NC(=O)c2ccncc2)c([N+](=O)[O-])cc1OC | inconclusive: 79.4 µM [inhibitor, partial curve] |
| Cc1ccc(/C=C/C(=O)c2ccc(O)cc2)cc1 | inconclusive: 50.1 µM [inhibitor, partial curve] |
| CCC(C)(C)n1nnnc1C(C(C)C)N1CCN(C)CC1 (centres undefined) | inconclusive: 89.1 µM [inhibitor, single point] |
| Cc1nn2c(nc1=O)SCC(c1ccccc1)=N2 | inconclusive: 39.8 µM [inhibitor, single point] |
| Cc1cccc(Cn2c(-c3cccc(Br)c3)nc3ccccc32)c1 | inconclusive: 2.24 µM [inhibitor, full curve, poor fit] |
| Cc1noc(C)c1S(=O)(=O)N1CCCC(C(=O)c2cccc(OC(C)C)c2)C1 (centres undefined) | inconclusive: 89.1 µM [inhibitor, partial curve, poor fit] |
| COc1ccc(COCC(O)CN2CCC(C(N)=O)CC2)cc1 (centres undefined) | inconclusive: 70.8 µM [inhibitor, single point] |
| COc1ccc(NC(=O)CSc2ccc(-c3ccco3)nn2)cc1 | inconclusive: 31.6 µM [inhibitor, full curve] |
| CN(C)C(=O)N1CCCC(C(=O)NCCc2ccccc2)C1 (centres undefined) | inconclusive: 126 µM [inhibitor, single point] |
| C/C(CC(=O)Nc1cc(C)ccn1)=N\NC(=O)c1ccc(C(C)(C)C)cc1 | inactive |
| CCCCN(C(=O)C(C)Oc1ccc(Br)cc1)c1c(N)n(CC(C)C)c(=O)[nH]c1=O (centres undefined) | inactive |
| O=C(N1CCOCC1)N1CCN(c2ccccc2F)CC1 | inconclusive: 10 µM [inhibitor, full curve, poor fit] |
| Cc1nc(N)sc1C(=O)N/N=C/c1cccnc1 | inconclusive: 100 µM [inhibitor, single point] |
| CNc1ccc(Br)cc(C(=O)/C=C/c2cccc(OC)c2)c1=O | inconclusive: 11.2 µM [inhibitor, full curve, poor fit] |
| CCCNC(=O)c1ccc(N2CCC3(CC2)CC(c2ccccc2)=NO3)c(NC(=O)c2cccc(OC)c2)c1 | inconclusive: 17.8 µM [inhibitor, partial curve, poor fit] |
| CC(=O)c1cccc(NC(=O)c2ccc(N(C)S(=O)(=O)c3ccc(C)cc3)cc2)c1 | inconclusive: 50.1 µM [inhibitor, partial curve, poor fit] |

| Compound | Potency |
| --- | --- |
| CC(C)CCOc1ccc(CC(=O)NO)cc1 | inactive |
| O=C(NC12CC3CC(CC(C3)C1)C2)c1ccc(=O)oc1 | inactive |
| COc1ccc(NC(=O)c2ccco2)cc1NC(=O)C(C)(C)Oc1ccc(Cl)cc1 | inconclusive: 3.55 µM [inhibitor, partial curve, poor fit] |
| N=C1SC(c2ccccc2)C(=O)N1c1ncc(Cc2ccccc2Cl)s1 (centres undefined) | inconclusive: 31.6 µM [inhibitor, full curve] |
| Cc1nc(SCC(=O)NNC(=O)c2ccc(F)cc2)c2ccccc2n1 | inconclusive: 14.1 µM [inhibitor, partial curve, poor fit] |
| c1ccc(-c2ccc(C3=Nn4c(Cn5nnc6ccccc65)nnc4SC3)cc2)cc1 | inconclusive: 14.1 µM [inhibitor, partial curve, poor fit] |
| Cc1cccc(CC(=O)N2CC(=O)Nc3ccc(Br)cc3C2c2ccc(F)cc2)c1 (centres undefined) | inconclusive: 12.6 µM [inhibitor, partial curve, poor fit] |
| CN(Cc1ccccc1)C(=O)c1ccc(CSc2nc3cccnc3n2Cc2ccccc2F)cc1 | inactive |
| Cc1ccc(C2C=C(c3ccccc3)Nc3nc(NS(=O)(=O)c4ccccc4)nn32)cc1 (centres undefined) | inactive |
| COc1cccc(-c2nn(-c3ccccc3)cc2C(=O)Nc2nccs2)c1 | inconclusive: 15.8 µM [inhibitor, full curve, poor fit] |
| COc1cc(C)nc(Nc2nc(C)c(C(C)=O)s2)n1 | inconclusive: 39.8 µM [inhibitor, partial curve, poor fit] |
| CCC(=O)OCOc1ccc(/C=C2/CCC(CN(C)C)C2=O)cc1 (centres undefined) | inconclusive: 35.5 µM [inhibitor, partial curve, poor fit] |
| O=C(CSc1nccn1Cc1ccc(F)cc1)Nc1nc2ccccc2s1 | inconclusive: 89.1 µM [inhibitor, partial curve, poor fit] |
| O=C(C1CC=CCC1)N1CCN(C(=O)C2CC=CCC2)CC1 (centres undefined) | inconclusive: 11.2 µM [inhibitor, single point] |
| CCN(CC)c1cc(C)c2cc(NC(=O)/C=C/c3cc(OC)c(OC)c(OC)c3)ccc2n1 | inconclusive: 31.6 µM [inhibitor, partial curve, poor fit] |
| c1ccc([C@H]2CN3CCSC3=N2)cc1 | inconclusive: 6.31 µM [inhibitor, full curve, poor fit] |
| COc1cc(/C=C/C(=O)NCCc2ccc(S(N)(=O)=O)cc2)ccc1OCC#N | inconclusive: 79.4 µM [inhibitor, partial curve] |
| Fc1ccc(CCNc2ncnc3nc[nH]c23)cc1 | inactive |
| CCc1ccc(CNC(=O)CCc2c(C)nn(-c3ccc(N4CCCC4)nn3)c2C)cc1 | inactive |
| COCC1CCCCC1OS(N)(=O)=O (centres undefined) | inconclusive: 25.1 µM [inhibitor, single point] |
| COc1cc(NC(=O)COc2ccc3c(C)cc(=O)oc3c2C)cc(OC)c1OC | inconclusive: 89.1 µM [inhibitor, single point] |
| CCOC(=O)c1ccsc1NC(=O)c1ccco1 | inconclusive: 100 µM [inhibitor, single point] |

| Compound | Potency |
| --- | --- |
| CCOc1ccc2nc(SCC(=O)Nc3ccc4[nH]c(=O)[nH]c4c3)[nH]c2c1 | inconclusive: 25.1 µM [inhibitor, full curve] |
| CCCCc1ccc(-c2csc(/C(C#N)=C/c3ccc(C)o3)n2)cc1 | inconclusive: 15.8 µM [inhibitor, partial curve, poor fit] |
| O=C(O)c1cc(S(=O)(=O)N(Cc2ccccc2)c2ccccc2Cl)ccc1Cl | inconclusive: 12.6 µM [inhibitor, partial curve, poor fit] |
| CCOC(=O)c1ccc(NS(=O)(=O)c2ccc3[nH]c4c(c3c2)CCCCC4)cc1 | inconclusive: 89.1 µM [inhibitor, single point] |
| O=C(Nc1ccccc1)N1CCCN(c2nccc(C(F)(F)F)n2)CC1 | inconclusive: 89.1 µM [inhibitor, single point] |
| Cc1cc(C)c(OCC(=O)N(Cc2cccc(F)c2)Cc2ccco2)c(C)c1 | inconclusive: 79.4 µM [inhibitor, single point] |
| CN(C)c1ccc(C(=O)/C=C/c2ccco2)cc1 | inconclusive: 79.4 µM [inhibitor, partial curve, poor fit] |
| COc1ccc(OCC(=O)NNC(=O)c2c(-c3ccccc3Cl)noc2C)cc1 | inconclusive: 79.4 µM [inhibitor, partial curve, poor fit] |
| OCCNc1c2ccccc2nc2ccccc12 | inconclusive: 12.6 µM [inhibitor, partial curve, poor fit] |
| Cc1ccc(NC(=O)CCC(=O)N/N=C/c2cccs2)cc1 | inconclusive: 100 µM [inhibitor, partial curve, poor fit] |
| c1ccc(-c2ccc(-c3ccncn3)cc2)cc1 | inactive |
| Cc1ccc(S/C(=N\S(=O)(=O)c2ccc(Cl)cc2)c2ccccc2)cc1 | inconclusive: 25.1 µM [inhibitor, partial curve] |
| COc1ccccc1NC(=O)COC(=O)C1CC(=O)N(c2ccc3c(c2)OCCO3)C1 (centres undefined) | inconclusive: 89.1 µM [inhibitor, single point] |
| Cc1ccc(NC(=O)CSCC(=O)NCc2ccco2)cc1 | inconclusive: 89.1 µM [inhibitor, single point] |
| COC(=O)c1oc2ccccc2c1N | inconclusive: 100 µM [inhibitor, single point] |
| O=C(Cc1ccc([N+](=O)[O-])cc1)N/N=C/c1ccc([N+](=O)[O-])o1 | inconclusive: 44.7 µM [inhibitor, partial curve, poor fit] |
| COc1ccc(/C=C(\C#N)C(=O)C(C)(C)n2cncn2)cc1 | inconclusive: 17.8 µM [inhibitor, partial curve] |
| Cc1oc2c(c(C)cc3oc(=O)c(CC(=O)NCc4ccc(F)cc4)c(C)c32)c1C | inconclusive: 89.1 µM [inhibitor, single point] |
| CN(C)c1ccc(N=Nc2ccc(C(=O)O)cc2)cc1 | active: 11.2 µM |
| N=C1/C(=C/c2ccc(-c3cccc(C(=O)O)c3)o2)C(=O)N=C2SC=C(c3ccccc3)N12 | active: 3.98 µM |

Reprinted at random: two compounds from above.

| Compound | Potency |
| --- | --- |
| O=C(O)c1cc(S(=O)(=O)N(Cc2ccccc2)c2ccccc2Cl)ccc1Cl | inconclusive: 12.6 µM [inhibitor, partial curve, poor fit] |
| CCOC(=O)c1ccc(NS(=O)(=O)c2ccc3[nH]c4c(c3c2)CCCCC4)cc1 | inconclusive: 89.1 µM [inhibitor, single point] |

From PubChem BioAssay AID588590 (National Center for Advancing Translational Sciences (NCATS), 2011)
